One assay has as its target T1, FLAG-2xStrep-tagged TSR1 (UniProt Q2NL82).
T1 sequence: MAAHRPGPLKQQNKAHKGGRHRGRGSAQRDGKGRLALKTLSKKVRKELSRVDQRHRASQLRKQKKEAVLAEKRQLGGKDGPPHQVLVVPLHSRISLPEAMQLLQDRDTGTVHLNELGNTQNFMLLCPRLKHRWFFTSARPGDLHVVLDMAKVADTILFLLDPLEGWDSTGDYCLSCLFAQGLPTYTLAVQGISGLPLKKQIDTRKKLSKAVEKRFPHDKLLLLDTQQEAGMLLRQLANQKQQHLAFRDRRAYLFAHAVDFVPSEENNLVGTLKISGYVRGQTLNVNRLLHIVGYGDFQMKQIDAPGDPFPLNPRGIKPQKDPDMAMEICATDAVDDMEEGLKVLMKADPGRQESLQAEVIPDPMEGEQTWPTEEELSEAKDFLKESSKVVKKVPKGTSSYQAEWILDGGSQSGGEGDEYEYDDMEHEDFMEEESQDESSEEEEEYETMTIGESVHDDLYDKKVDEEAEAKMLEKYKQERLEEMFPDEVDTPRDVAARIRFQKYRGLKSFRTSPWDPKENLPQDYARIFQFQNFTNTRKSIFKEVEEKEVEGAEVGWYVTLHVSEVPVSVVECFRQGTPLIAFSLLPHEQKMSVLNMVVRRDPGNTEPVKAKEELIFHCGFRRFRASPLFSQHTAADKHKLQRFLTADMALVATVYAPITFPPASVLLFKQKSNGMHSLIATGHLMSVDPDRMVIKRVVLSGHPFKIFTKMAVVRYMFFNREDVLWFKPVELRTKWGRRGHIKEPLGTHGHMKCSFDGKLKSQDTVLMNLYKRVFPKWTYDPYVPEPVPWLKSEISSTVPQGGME
Description: affinity purification with mass spectrometry.

Sequences of proteins named here, by UniProt entry; tags and fusion partners are left off.
UniProt Q9NRX1: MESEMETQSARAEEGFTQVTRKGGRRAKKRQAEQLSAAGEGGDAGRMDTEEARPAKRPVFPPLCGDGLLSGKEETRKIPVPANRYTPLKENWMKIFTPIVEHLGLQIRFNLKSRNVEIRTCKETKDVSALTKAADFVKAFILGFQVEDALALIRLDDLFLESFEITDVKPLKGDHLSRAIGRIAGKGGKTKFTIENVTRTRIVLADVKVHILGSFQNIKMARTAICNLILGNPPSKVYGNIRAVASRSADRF

The target of another assay is T2, FLAG-2xStrep-PNO1 (UniProt Q9NRX1 1-252).
T2 construct: also called PNO1 bait protein
Description: affinity purification with mass spectrometry.

Results are given in words; binding and its absence hold for the method and conditions named. In cells and extracts the contact can be indirect. Here binding means that the protein was enriched with, or labelled near, the bait; the list need not be complete. For part of these data: A no says only that the protein was not detected with the bait. For part of these data: Sequences can lack the tags named with a protein.

B1: KSHV ORF11 protein (protein, UniProt Q2HRC8 1-407)
chain: MAQESEQCSRAFAVCSSKRQLGRGEPVWDSVIHPSHIVISNRVPLLLREQNICLPSCPSVGQILHRAYPNFTFDNTHRKQQTETYTAFYAFGDQNNKVRILPTVVESSSSVLIFRLRASVSANIAVGGLKIIILALTLVHAQGVYLRCGKDLSTPHCAPAIVQREVLSSGFEPQFTVTGIPVTSSNLNQCYFLVRKPKSRLAKPFARLSAETTEECRVRSIRLGKTHLRISVTAPAQETPVWGLVTTSFSLTPTAPLAFDRNPYNHETFACNARHYIPVIYSGPKITLAPRGRQVVWHNNSYTSSLPCKVTAIVSNHCCNCDIFLEDSEWRPNKPAPLKLVNTSDHPVILEPDTHIGNALFIIAPKARGLRRLTRLTTKTIELPGGVKIDSRKLQTFRKMYVATGRS
With B1, the binding result in the assay with FLAG-2xStrep-tagged TSR1 is given as “no binding”.

B2: NOC4L (natural protein, human (endogenous in TREx BCBL1-Rta), UniProt Q9BVI4 1-516, looked up)
chain: MEREPGAAGVRRALGRRLEAVLASRSEANAVFDILAVLQSEDQEEIQEAVRTCSRLFGALLERGELFVGQLPSEEMVMTGSQGATRKYKVWMRHRYHSCCNRLGELLGHPSFQVKELALSALLKFVQLEGAHPLEKSKWEGNYLFPRELFKLVVGGLLSPEEDQSLLLSQFREYLDYDDTRYHTMQAAVDAVARVTGQHPEVPPAFWNNAFTLLSAVSLPRREPTVSSFYVKRAELWDTWKVAHLKEHRRVFQAMWLSFLKHKLPLSLYKKVLLIVHDAILPQLAQPTLMIDFLTRACDLGGALSLLALNGLFILIHKHNLEYPDFYRKLYGLLDPSVFHVKYRARFFHLADLFLSSSHLPAYLVAAFAKRLARLALTAPPEALLMVLPFICNLLRRHPACRVLVHRPHGPELDADPYDPGEEDPAQSRALESSLWELQALQRHYHPEVSKAASVINQALSMPEVSIAPLLELTAYEIFERDLKKKGPEPVPLEFIPAQGLLGRPGELCAQHFTLS
On to B2, for which the binding result with FLAG-2xStrep-PNO1 is “binds”.

B3: BUD23 (natural protein, human (endogenous in TREx BCBL1-Rta), UniProt O43709 1-281, looked up)
chain: MASRGRRPEHGGPPELFYDETEARKYVRNSRMIDIQTRMAGRALELLYLPENKPCYLLDIGCGTGLSGSYLSDEGHYWVGLDISPAMLDEAVDREIEGDLLLGDMGQGIPFKPGTFDGCISISAVQWLCNANKKSENPAKRLYCFFASLFSVLVRGSRAVLQLYPENSEQLELITTQATKAGFSGGMVVDYPNSAKAKKFYLCLFSGPSTFIPEGLSENQDEVEPRESVFTNERFPLRMSRRGMVRKSRAWVLEKKERHRRQGREVRPDTQYTGRKRKPRF
For the molecule B3, the binding entry with FLAG-2xStrep-PNO1 was “binds”.

These data come from article PMC9849454, “Kaposi’s sarcoma-associated herpesvirus induces specialised ribosomes to efficiently translate viral lytic mRNAs” (Nature Communications, 2023).
